Measured values as given in PubChem BioAssay AID624291 (National Center for Advancing Translational Sciences (NCATS), 2012).
In all, about 350,000 compounds went through this assay and about 220 (0.063%) were called active. Inconclusive means that the source gave no clear call. Such entries were picked first, then a sample of the others. Calls follow the shape of the dose curve; as a rule, active = well fitted activation curve with a large enough effect; inconclusive = small, poorly fitted or top-dose-only effect; inactive = no such curve, though single readings can be large or run the other way. Where the call is inconclusive, the potency comes from a doubtful curve fit.

Assay: qHTS for Activators of Integrin-Mediated Alleviation for Muscular Dystrophy; also: nearly all actives have a fitted effect of over 60% in size
Conditions: alpha7betagal myoblasts, beta-gal FDG fluorescence, 48 h; series mostly up to 38.3 µM
Procedure, shortened: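 alpha7betagal+/- myoblasts (passage 13, 250/well) treated 48 h at 37C with compounds at 1:260 dilution of DMSO stock. Lysed, then beta-galactosidase activity read as FDG fluorescence (ex 480/em 540) after 30 min, with pre-read for autofluorescence.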
Potency is read from the fitted curve at half-maximal effect.

SMILES | Potency
CC12CN3CCN(CC(C3)/C1=N/NC(N)=O)C2 | inconclusive: 3.55 µM [activator, single point]
CC(C)=CCc1c(O)cc2c(c1O)C(=O)CC(c1ccc(O)cc1)O2 (stereo unspecified) | inactive
NC(=O)CSP(=O)(c1ccccc1)c1ccccc1 | inactive
CC(C)c1ccc(N2C(=O)NC(=O)/C(=C/c3cnc(-c4ccccc4)nc3)C2=O)cc1 | inactive
COc1cc(C(=O)OC2C[C@H]3CC[C@@H](C2)N3)ccc1O (stereo partly specified) | inactive
Cc1ccc(Cn2ccccc2=N)cc1 | inconclusive: 15.8 µM [activator, partial curve, poor fit]
O=C(Oc1ccc(N2C(=O)C3C4CCC(C4)C3C2=O)cc1)c1ccco1 (stereo unspecified) | inconclusive: 2 µM [activator, single point]
O=C(c1cccn2c(=O)c3cc(Br)ccc3nc12)N1CCC2(CC1)OCCO2 | inconclusive: 2.82 µM [activator, partial curve, poor fit]
O=P(Nc1cccc(Cl)c1)(Oc1ccccc1)Oc1ccccc1 | inactive
CCN1CCN(Cc2cc(Br)ccc2O)CC1 | inactive
CCN(CC)S(=O)(=O)c1ccc(NN=C(C#N)C#N)cc1 | inconclusive: 2.82 µM [activator, full curve, poor fit]
COc1cc(N2CCOCC2)ccc1/C=C1\C(=O)NC(=O)N(Cc2cccs2)C1=O | inconclusive: 31.6 µM [activator, single point]
CCc1nn(CC(=O)N2CCC3(CC2)OCCO3)c(=O)c2cc3ccccc3n12 | inactive
CCCC(=O)Nc1nnc(SCC(=O)NCc2ccc3c(c2)OCO3)s1 | inconclusive: 28.2 µM [activator, single point]
O=c1[nH]c(=S)[nH]c(O)c1N=Nc1ccc2c(c1)OCO2 | inconclusive: 3.55 µM [activator, single point]
O=C(N/N=C/c1c(O)n(C2CC2)c(=S)[nH]c1=O)c1ccccc1O | inactive
CCOC(=O)c1nc2ccccc2c(=O)n1-c1ccc(C)cc1C | inconclusive: 2 µM [activator, full curve, poor fit]
Cc1ccsc1C(=O)C1CCCN(Cc2c(C)nn(C(C)C)c2C)C1 (stereo unspecified) | inconclusive: 2.82 µM [activator, single point]
CCOC(=O)c1c(-c2ccc(OC)cc2)oc2ccc(OC(=O)N(C)C)cc12 | inactive
CCCNC1=C(C)C(=O)C2=C(C1=O)C(COC(N)=O)[C@]1(OC)C3NC3CN21 (stereo partly specified) | inconclusive: 2.51 µM [activator, full curve, poor fit]
Fc1ccccc1N1CCN(Cc2ccc3c(c2)OCO3)CC1 | inactive
CCN1CCN(c2ccc([N+](=O)[O-])cc2C(=O)OC)CC1 | inconclusive: 2.82 µM [activator, single point]
Cc1ccc(/C=C2\C(=O)NC(=S)N(c3ccc(F)cc3)C2=O)o1 | inactive

SMILES | Potency
Cc1ccsc1C(=O)C1CCCN(Cc2ccn[nH]2)C1 (stereo unspecified) | inconclusive: 3.55 µM [activator, single point]
Cc1cc(OC(=O)N(C)C)nc(SCc2c(Cl)cccc2Cl)n1 | inconclusive: 5.01 µM [activator, single point]
O=C(c1cc2cc(Cl)ccc2[nH]1)N1CCC2(CC1)OCCO2 | inconclusive: 22.4 µM [activator, single point]
Cc1cccc(CCNCc2cc3ccc(C)cc3[nH]c2=O)c1 | inconclusive: 0.501 µM [activator, full curve, poor fit]
O=C(Nc1ccc(F)cc1)c1c(O)c2c(n(Cc3ccccc3)c1=O)CCCC2 | inconclusive: 1.58 µM [activator, partial curve, poor fit]
Cc1ccc2c(CN3CC=C(c4ccccc4)CC3)cc(=O)oc2c1C | inactive
O=c1[nH]c(=S)n(Cc2ccc(F)cc2)c(O)c1/C=N/N1CCCCC1 | inconclusive: 31.6 µM [activator, partial curve, poor fit]
COC(=O)C1=C(c2ccc(F)cc2OCc2ccccc2)C[C@@H]2CC[C@H]1N2C(=O)NCc1ccccc1C(F)(F)F | inactive
CCOC(=O)CC1=C(C(=O)OCC)C2(C(=O)N1)C(C(=O)OC)=C(N)Oc1ccccc12 (stereo unspecified) | inconclusive: 5.01 µM [activator, single point]
C=Cn1ccnc1P(=S)(c1ccc(N(C)C)cc1)c1nccn1C=C | inactive
CCCCn1c(=O)c(C(=O)Nc2ccccc2Cl)c(O)c2ccccc21 | inconclusive: 4.47 µM [activator, single point]
O=C(c1ccc(Cl)cc1)C1CCCN(Cc2ccc3ncccc3c2)C1 (stereo unspecified) | inactive
CCOC(=O)c1c(/N=C/c2c(O)n(-c3ccccc3F)c(=S)[nH]c2=O)sc2c1CCCC2 | inconclusive: 3.98 µM [activator, single point]
CC(C)OP(=O)(OC(C)C)C(Nc1ccc([N+](=O)[O-])cc1)c1cccc([N+](=O)[O-])c1 (stereo unspecified) | inconclusive: 28.2 µM [activator, single point]
COc1ccccc1OCCCn1cc(C=O)c2ccccc21 | inactive
O=c1[nH]c(CN2CC=C(c3ccccc3)CC2)nc2scc(-c3ccccc3)c12 | inactive
C[C@H](NC(=O)CCC(=O)N1C[C@H]2C[C@H](C1)c1cccc(=O)n1C2)c1ccccc1 | inactive
COc1ccc(OC)c(N2C(=O)NC(=O)/C(=C/c3ccc([N+](=O)[O-])s3)C2=O)c1 | inactive
CC(CN1CCOCC1)OC(=O)Cc1ccccc1 (stereo unspecified) | inconclusive: 22.4 µM [activator, single point]
COc1cc(C(=O)NC(=S)N2C[C@H]3C[C@H](C2)c2cccc(=O)n2C3)cc(OC)c1OC | inactive
Cc1c(C(=O)O)cc(-c2ccccc2)n1Cc1ccccc1 | inconclusive: 28.2 µM [activator, single point]
Cc1ccc(C(C)(C)NC(=O)C2CCC(=O)N(C3CCCCCC3)C2)cc1 (stereo unspecified) | inconclusive: 1 µM [activator, full curve, poor fit]
Cc1cc(Br)c(NC(=O)CN2CC=C(c3ccccc3)CC2)c(Br)c1 | inactive

Structures shown so far that contain bromine, in the order listed:
SMILES | Potency
O=C(c1cccn2c(=O)c3cc(Br)ccc3nc12)N1CCC2(CC1)OCCO2 | inconclusive: 2.82 µM [activator, partial curve, poor fit]
CCN1CCN(Cc2cc(Br)ccc2O)CC1 | inactive
Cc1cc(Br)c(NC(=O)CN2CC=C(c3ccccc3)CC2)c(Br)c1 | inactive
